Measurements published in patent US7064206B1 (University of Kentucky Research Foundation, priority 2003, dated 2006).

Assay: Active loading into premade liposomes by ammonium sulfate gradient
Conditions: underivatized drug

Compound	localization in the liposome
CC[C@@]1(O)C(=O)OCc2c1cc1n(c2=O)Cc2c-1nc1ccc(O)cc1c2[Si](C)(C)C(C)(C)C [DB-67, 7-t-butyldimethylsilyl-10-hydroxycamptothecin]	predominantly in the bilayer compartment
Camptothecin	predominantly in the bilayer compartment
